Assay results reported in patent publication US20250368751A1.
These are yes or no findings as the source states them, for the method shown. Binding can be weak; no strength is given. Where a sequence is shown, tags or fusion partners need not be part of it.

Target: human IL2 (Proleukin) (human)
Experiment: complex formed by mixing antibody and IL2 (mass ratio 1:7, 30 min, room temperature); binding itself not measured

binding: binds
B1: Fc-mutated humanized IL2 monoclonal antibody hu22F8mu (antibody, human IgG4 S228P, kappa)
heavy: QVQLVQSGAEVKKPGASVKVSCKASGFNIKNTYMHWVRQAPGQGLEWMGRIDPANGNTKYAPKFQGRVTMTRDTSTSTVYMELSSLRSEDTAVYYCGRSRGYAMDYWGQGTTVTVSSASTKGPSVFPLAPCSRSTSESTAALGCLVKDYFPEPVTVSWNSGALTSGVHTFPAVLQSSGLYSLSSVVTVPSSSLGTKTYTCNVDHKPSNTKVDKRVESKYGPPCPPCPAPEFLGGPSVFLFPPKPKDTLMISRTPEVTCVVVDVSQEDPEVQFNWYVDGVEVHNAKTKPREEQFNSTYRVVSVLTVLAQDWLNGKEYKCKVSNKGLPSSIEKTISKAKGQPREPQVYTLPPSQEEMTKNQVSLTCLVKGFYPSDIAVEWESNGQPENNYKTTPPVLDSDGSFFLYSRLTVDKSRWQEGNVFSCSVMHEALHNQYTQKSLSLSLGK
light: DIQMTQSPSSLSASVGDRVTITCKASDHINNWLAWYQQKPGKAPKLLISGATSLETGVPSRFSGSGSGTDYTLTISSLQPEDFATYYCQQYWSTPTFGGGTKLEIKRTVAAPSVFIFPPSDEQLKSGTASVVCLLNNFYPREAKVQWKVDNALQSGNSQESVTEQDSKDSTYSLSSTLTLSKADYEKHKVYACEVTHQGLSSPVTKSFNRGEC
